Data source: PubChem BioAssay AID1508597 (Cure First, 2020)

- Aim: 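Knock-downs altering ovarian cancer cell survival with or without PARP inhibitor rucaparib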 (primary screen)
- System: human ovarian carcinoma lines grown from tumours: OCI-P5x (papillary serous) and OCI-C5x (clear cell)
- Reagents: siRNA pool against human genes, 1.25 pmol siRNA per well
- Timing: 72 h or 96 h, depending on the cell culture
- Treatment: rucaparib 20 µM (about IC30) or vehicle, present until read-out
- Rucaparib or vehicle: Vehicle
- Cell line: OCI-P5x (serous)
- Measured: 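Luminescent ATP-based viability assay read 72 or 96 h after transfection, depending on culture, given as normalised percent viability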
- Direction: viability, normalised: higher = more viable cells remaining
- Call rule: 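Active when normalised viability falls below 80 percent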
- Meaning of the calls: active = viability under 80%; inactive = viability 80% or more
This is a random part of the about 2,100 reagents, in one setting of the screen. 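Calls flag viability under 80% in either arm, not effects specific to rucaparib; the reference for percent is not stated.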 Unmarked entries are inactive. A reagent listed more than once was tested more than once; the source does not tell the runs apart. Reagent sequences are not shown. Not stated in the record: the 100% reference.

With DDX1, technical replicate 1, what does the deposit list?
viability, normalised (%): 56.7 (active)

Which result is listed for DDX1, technical replicate 1?
viability, normalised (%): 57.9 (active)

What did the screen give for DDX1, technical replicate 2?
viability, normalised (%): 55.1 (active)

With DDX1, technical replicate 2, what was measured?
viability, normalised (%): 63.6 (active)

What is on record for DDX1, technical replicate 3?
viability, normalised (%): 55.4 (active)

How did the screen score DDX1, technical replicate 3?
viability, normalised (%): 70 (active)

With PROX1, technical replicate 1, how do the results read?
viability, normalised (%): 61.9 (active)

For PROX1, technical replicate 2, how do the results read?
viability, normalised (%): 48.1 (active)

For PROX1, technical replicate 3, how do the results read?
viability, normalised (%): 88.4

Which result is listed for RPA4, technical replicate 1?
viability, normalised (%): 62.6 (active)

Which result is listed for RPA4, technical replicate 2?
viability, normalised (%): 66.1 (active)

For RPA4, technical replicate 3, what was measured?
viability, normalised (%): 67.8 (active)

Taken from above:
Under “viability, normalised (%)”, RPA4, technical replicate 2 shows 66.1 (active)
Result of RPA4, technical replicate 1 in “viability, normalised (%)”: 62.6 (active)
